Test [1] concerns the target LAP3 fused to GFP (LAP3::GFP) (Plasmodium berghei). The experiment in a line: affinity purification with mass spectrometry; GFP pull-down (anti-GFP microbeads, μMACS kit) from lysates (150 mM NaCl, 1% Triton X-100, 50 mM Tris-HCl pH 8.0) of ookinetes expressing LAP3::GFP after in vivo crosslinking with 1% paraformaldehyde; compared with non-crosslinked samples and LAP3-KO controls; LC-MS/MS with label free quantification; Table 1 lists the hits left after the filters (at least 2-fold enriched in crosslinked samples).

By UniProt entry, the sequences of proteins in these tests, tags left out. Where a name states a change or a piece, a line headed by the entry shows the natural chain unless it says otherwise. Residues count along the entry.
UniProt A0A509AEX0: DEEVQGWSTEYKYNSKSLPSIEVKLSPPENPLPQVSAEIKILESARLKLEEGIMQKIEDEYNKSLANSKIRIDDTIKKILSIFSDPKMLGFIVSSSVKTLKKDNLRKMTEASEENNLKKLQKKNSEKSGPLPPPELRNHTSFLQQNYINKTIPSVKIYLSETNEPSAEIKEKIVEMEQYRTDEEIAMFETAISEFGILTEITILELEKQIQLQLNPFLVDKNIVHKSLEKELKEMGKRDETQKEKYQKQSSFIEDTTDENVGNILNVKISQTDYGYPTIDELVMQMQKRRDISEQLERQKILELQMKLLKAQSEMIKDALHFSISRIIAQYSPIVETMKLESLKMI
UniProt A0A509AJG0, residues 22-651: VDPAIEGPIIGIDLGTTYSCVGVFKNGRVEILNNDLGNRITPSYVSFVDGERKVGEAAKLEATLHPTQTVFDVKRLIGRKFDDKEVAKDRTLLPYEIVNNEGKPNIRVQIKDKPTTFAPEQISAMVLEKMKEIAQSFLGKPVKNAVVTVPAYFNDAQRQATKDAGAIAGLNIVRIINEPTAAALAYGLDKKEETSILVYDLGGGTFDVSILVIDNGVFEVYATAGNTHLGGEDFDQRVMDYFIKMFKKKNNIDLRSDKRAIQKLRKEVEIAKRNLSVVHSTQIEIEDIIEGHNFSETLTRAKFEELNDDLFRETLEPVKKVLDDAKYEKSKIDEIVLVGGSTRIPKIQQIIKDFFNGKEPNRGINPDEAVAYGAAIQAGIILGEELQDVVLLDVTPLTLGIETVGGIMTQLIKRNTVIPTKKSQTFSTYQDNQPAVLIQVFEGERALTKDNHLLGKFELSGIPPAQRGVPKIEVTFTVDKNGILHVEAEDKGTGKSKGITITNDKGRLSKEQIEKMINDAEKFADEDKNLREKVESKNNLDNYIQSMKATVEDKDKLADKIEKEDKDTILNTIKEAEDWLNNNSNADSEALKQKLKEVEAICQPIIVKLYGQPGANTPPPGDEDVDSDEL
UniProt A0A509APN5: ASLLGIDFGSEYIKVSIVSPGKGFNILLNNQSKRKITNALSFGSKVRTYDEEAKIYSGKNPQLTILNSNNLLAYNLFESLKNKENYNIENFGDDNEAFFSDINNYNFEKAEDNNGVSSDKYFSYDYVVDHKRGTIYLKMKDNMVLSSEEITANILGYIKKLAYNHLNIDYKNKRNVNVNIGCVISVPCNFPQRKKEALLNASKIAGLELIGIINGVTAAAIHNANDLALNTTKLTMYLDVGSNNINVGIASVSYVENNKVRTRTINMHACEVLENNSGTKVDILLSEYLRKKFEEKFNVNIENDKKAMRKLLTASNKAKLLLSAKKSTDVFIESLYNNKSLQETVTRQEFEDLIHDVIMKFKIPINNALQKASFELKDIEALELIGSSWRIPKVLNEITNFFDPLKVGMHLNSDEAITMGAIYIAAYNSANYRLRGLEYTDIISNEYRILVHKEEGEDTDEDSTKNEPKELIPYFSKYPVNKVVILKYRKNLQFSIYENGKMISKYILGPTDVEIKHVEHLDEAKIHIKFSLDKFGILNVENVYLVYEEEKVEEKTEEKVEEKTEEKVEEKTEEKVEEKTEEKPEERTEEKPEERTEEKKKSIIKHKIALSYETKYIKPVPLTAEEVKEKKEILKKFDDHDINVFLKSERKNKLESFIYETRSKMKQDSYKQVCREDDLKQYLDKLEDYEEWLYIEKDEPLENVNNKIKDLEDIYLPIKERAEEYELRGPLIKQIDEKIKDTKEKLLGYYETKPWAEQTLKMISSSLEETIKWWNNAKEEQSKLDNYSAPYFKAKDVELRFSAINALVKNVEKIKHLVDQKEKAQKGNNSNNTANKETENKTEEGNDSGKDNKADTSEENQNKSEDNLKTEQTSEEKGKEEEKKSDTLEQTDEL
UniProt A0A509AM83: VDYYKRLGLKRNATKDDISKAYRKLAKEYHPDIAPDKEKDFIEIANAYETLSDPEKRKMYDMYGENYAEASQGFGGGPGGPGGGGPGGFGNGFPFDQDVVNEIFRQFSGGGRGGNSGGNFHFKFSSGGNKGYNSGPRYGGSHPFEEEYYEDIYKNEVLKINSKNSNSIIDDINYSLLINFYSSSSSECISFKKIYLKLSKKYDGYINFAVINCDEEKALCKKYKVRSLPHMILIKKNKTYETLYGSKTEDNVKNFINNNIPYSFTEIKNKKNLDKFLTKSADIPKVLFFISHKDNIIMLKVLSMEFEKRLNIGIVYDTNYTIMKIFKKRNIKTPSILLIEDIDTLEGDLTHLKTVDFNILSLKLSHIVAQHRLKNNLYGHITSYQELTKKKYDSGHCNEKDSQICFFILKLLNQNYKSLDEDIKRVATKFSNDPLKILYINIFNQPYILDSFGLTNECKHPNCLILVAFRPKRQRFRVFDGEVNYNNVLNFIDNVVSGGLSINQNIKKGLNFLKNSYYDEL
UniProt A0A509ALX4: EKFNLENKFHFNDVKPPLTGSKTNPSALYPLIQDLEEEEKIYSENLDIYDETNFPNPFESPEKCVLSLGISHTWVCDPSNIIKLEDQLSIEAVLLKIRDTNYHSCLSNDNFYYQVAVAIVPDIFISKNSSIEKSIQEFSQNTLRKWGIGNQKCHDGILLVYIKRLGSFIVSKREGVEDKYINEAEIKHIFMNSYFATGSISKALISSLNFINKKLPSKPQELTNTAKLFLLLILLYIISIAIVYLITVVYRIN
UniProt A0A509AFS2: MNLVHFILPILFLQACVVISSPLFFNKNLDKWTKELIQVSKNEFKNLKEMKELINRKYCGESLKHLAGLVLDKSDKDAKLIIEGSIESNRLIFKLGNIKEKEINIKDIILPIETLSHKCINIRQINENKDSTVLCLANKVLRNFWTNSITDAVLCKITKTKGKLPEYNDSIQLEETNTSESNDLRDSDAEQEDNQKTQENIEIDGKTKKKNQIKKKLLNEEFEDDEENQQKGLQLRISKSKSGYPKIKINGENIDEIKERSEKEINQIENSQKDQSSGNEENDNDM
UniProt A0A509AML0: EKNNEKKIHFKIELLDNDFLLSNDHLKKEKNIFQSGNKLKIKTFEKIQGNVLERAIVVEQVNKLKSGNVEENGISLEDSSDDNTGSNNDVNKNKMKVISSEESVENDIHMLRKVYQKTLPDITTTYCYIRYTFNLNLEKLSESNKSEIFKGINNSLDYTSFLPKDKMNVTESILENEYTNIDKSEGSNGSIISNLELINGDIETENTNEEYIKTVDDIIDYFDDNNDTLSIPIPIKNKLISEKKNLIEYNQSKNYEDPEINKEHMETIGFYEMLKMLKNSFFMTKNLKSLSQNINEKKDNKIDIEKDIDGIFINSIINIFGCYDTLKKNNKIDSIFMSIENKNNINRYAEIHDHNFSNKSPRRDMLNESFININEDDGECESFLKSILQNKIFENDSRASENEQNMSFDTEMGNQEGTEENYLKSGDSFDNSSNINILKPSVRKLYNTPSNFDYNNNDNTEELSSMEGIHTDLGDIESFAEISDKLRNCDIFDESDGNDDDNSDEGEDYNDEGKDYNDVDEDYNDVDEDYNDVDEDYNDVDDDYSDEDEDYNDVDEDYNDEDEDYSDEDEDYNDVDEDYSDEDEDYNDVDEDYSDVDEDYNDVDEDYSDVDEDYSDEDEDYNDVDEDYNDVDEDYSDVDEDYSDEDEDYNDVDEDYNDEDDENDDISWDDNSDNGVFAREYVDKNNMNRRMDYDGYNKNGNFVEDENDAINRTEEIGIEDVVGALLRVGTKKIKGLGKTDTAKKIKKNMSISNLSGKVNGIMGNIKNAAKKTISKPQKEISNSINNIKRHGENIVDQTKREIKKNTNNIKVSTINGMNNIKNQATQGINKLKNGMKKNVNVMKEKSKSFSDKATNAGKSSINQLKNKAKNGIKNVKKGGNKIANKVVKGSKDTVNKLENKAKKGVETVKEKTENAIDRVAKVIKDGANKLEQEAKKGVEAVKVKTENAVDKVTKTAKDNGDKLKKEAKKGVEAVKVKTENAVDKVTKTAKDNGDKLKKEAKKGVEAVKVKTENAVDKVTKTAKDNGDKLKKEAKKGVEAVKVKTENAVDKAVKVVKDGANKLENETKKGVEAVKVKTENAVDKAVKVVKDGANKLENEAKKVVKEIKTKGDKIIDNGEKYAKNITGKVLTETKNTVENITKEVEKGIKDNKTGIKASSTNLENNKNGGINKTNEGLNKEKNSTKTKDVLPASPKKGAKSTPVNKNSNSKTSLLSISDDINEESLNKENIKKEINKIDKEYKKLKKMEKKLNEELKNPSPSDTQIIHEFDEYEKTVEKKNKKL
UniProt A0A509ANV7: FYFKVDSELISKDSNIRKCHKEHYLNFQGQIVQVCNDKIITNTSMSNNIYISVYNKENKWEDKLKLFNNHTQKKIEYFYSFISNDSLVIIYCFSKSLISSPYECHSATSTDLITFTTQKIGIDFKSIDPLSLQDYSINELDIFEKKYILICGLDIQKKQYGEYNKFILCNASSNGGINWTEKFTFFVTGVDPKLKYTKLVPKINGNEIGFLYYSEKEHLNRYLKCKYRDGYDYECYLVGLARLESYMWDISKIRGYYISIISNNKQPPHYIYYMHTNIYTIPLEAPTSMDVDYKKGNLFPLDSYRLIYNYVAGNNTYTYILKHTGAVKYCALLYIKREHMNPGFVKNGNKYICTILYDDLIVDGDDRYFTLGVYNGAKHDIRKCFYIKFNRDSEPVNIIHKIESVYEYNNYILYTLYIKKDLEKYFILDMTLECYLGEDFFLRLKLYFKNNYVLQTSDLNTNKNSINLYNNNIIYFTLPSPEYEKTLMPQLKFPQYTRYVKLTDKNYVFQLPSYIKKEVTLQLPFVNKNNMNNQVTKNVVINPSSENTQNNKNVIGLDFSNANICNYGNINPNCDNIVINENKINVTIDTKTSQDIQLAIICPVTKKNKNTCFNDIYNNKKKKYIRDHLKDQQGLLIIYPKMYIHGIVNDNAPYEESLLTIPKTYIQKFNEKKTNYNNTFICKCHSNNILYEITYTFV
UniProt A0A509AMC2: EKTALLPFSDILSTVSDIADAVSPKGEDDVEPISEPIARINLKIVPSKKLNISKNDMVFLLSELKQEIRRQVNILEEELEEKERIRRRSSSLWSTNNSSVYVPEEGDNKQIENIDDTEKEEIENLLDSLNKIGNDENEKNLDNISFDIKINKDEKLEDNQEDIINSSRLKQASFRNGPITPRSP
UniProt A0A509B0M9: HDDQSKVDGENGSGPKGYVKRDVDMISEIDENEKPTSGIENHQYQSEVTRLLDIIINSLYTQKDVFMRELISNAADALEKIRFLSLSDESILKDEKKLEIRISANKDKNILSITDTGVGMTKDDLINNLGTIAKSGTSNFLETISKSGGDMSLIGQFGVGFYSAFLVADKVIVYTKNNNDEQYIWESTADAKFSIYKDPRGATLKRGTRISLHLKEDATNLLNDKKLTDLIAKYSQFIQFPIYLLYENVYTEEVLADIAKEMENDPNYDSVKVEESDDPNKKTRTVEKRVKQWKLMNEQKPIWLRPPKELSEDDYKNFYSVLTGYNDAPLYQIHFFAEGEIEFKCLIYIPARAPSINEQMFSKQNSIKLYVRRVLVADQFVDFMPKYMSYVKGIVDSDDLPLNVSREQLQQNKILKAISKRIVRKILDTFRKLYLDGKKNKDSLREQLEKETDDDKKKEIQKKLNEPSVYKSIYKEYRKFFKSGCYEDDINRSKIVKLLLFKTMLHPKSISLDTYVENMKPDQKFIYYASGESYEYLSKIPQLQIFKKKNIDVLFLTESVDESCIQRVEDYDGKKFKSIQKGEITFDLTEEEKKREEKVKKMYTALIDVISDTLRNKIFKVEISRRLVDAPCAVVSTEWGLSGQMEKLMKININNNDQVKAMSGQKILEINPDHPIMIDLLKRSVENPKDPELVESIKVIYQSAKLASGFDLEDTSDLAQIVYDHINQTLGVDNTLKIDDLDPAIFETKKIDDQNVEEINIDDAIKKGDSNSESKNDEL
UniProt A0A509AJZ7: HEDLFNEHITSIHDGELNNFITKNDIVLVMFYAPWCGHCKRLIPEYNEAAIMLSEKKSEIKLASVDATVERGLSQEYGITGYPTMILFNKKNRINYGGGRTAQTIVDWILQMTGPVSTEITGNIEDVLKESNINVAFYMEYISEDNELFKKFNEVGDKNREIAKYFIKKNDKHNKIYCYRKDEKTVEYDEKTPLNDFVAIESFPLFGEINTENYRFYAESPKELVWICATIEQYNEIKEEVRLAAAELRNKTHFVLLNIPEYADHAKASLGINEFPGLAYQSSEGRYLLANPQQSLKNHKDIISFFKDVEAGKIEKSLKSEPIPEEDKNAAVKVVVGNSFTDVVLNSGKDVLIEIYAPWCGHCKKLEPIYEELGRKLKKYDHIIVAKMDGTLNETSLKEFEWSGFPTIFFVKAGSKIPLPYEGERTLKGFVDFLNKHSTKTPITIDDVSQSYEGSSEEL

The target in test [2] is GFP-tagged TPM2 (TPM2/GFP) (Plasmodium berghei). The experiment in a line: affinity purification with mass spectrometry; GFP pull-down (anti-GFP microbeads, μMACS kit) from lysates of ookinetes expressing GFP-tagged TPM2 after in vivo crosslinking with 1% paraformaldehyde; compared with non-crosslinked samples; LC-MS/MS; Table 2 lists the hits left after the same filters.

This note sets out measurements from paper PMC7487766.

These are yes or no findings as the source states them, for the method shown. In cells and extracts the contact can be indirect. Here binding means that the protein was enriched with, or labelled near, the bait; the list need not be complete.

In the case of “Blood stage antigen 41-3 precursor, putative (PBANKA_0606200) (from UniProt A0A509AEX0)”, the binding entry in test [1] was “binds”.
For the molecule “Crystalloid-specific PH domain-containing protein, putative (PBANKA_0704900) (from UniProt A0A509AJL0)”, the binding entry in test [2] and in test [1] was “binds” in each case.
On to “Hsp70/BiP (PBANKA_0818900) (from UniProt A0A509AJG0 22-651)”, for which, in test [1], the binding entry is listed as “binds”.
The same measure, in the same setting: then “Hsp110 (PBANKA_1357200) (from UniProt A0A509APN5)”, with “binds”; and “HspJ2 (PBANKA_0938300) (from UniProt A0A509AM83)”, with “binds”.
With “LCCL domain-containing protein (LAP1) (from UniProt A0A509ANB6)”, the binding result in test [2] is given as “binds weakly”.
Regarding “MOLO1 domain-containing protein, putative (TPM2) (from UniProt A0A509ALX4)”, the binding result in test [1] is reported as “binds”.
For “PH domain-containing protein PBANKA_0417200 (from UniProt A0A509AFS2)”, the binding entry in test [2] and in test [1] was “binds” throughout.
For “Secreted ookinete protein, putative (PSOP2) (from UniProt A0A509AML0)”, the binding result in test [2] and in test [1] was “binds” each time.
In the case of “Secreted ookinete protein, putative (PSOP7) (from UniProt A0A509ASW0)”, the binding entry in test [2] and in test [1] was “binds” throughout.
As to “Secreted ookinete protein, putative (PSOP12) (from UniProt A0A509ANV7)”, in test [1], the binding entry was “binds”.
Take “Secreted ookinete protein, putative (PSOP13) (from UniProt A0A509AMC2)”: the binding result in test [2] and in test [1] was “binds” each time.
Regarding “endoplasmin/Hsp90 (PBANKA_1437300) (from UniProt A0A509B0M9)”, the binding result in test [1] is given as “binds”.
The same measure, in the same setting: then “putative protein disulphide isomerase PBANKA_0702800 (from UniProt A0A509AJZ7)”, with “binds”; and “putative protein disulphide isomerase PBANKA_0942500 (from UniProt A0A509AQI1)”, with “binds”.

B1: Plasmepsin VI (protein, UniProt A0A509AI82 1-441)
chain: MTNFCIKSYLFLYLSFLLFFDIITIFHVSSIRISTVLKNDKKKKNFNTSLVEENKKYLFNEIKLNNRFKNDIKGYIQNINNFHSIIESKIPNSLLYVHEDLINFHNSQFIGDIEIGNPPQSFKVVFDTGSSNFAIPSTKCVKGGCTLHNKFDAKKSRTFMSNLKNKKESIYTYVQYGTGKSILEHGYDDVYMKGLKINKQCIGLIIEESMHPFSDLPFDGIVGLGFSDPDNSFQTKYSKSLIETIKEQNLLQQNIFSFYVPKELEKSGAITFGRANSKYAIEGEKIEWFPVISMYFWEINLLGILLPDKNFEICSNKKCRAAVDTGSSLITGPSSLMQPLIENINLEKDCSNISSLPIISFVLKNVEGKTVILDFTPDDYILQENSEEDNSSQCVIGLMSLDIPPPRGPIFIFGNVFIRKYYTIFDNDHKLVGVVKSNHNF
As for B1, the binding result in test [1] was “binds”.

B2: PBANKA_0813300, conserved Plasmodium protein, unknown function (protein, UniProt A0A509AKT6 1-455)
chain: MIIDLFQSKKLIISIIILILRISLFSCAEHLFFNNNFNFFNFSENNHAKVNELNIDTKYLYQGLRNINIYLALSALNGITKEKINDISQWNGYKTRNNDETNISNVVVTEWKQLNKKSFFLKNNNISNNDNLIKGMPNPYFINSLTEDINNINLYFNIRNDIKYGEIIYKGTYIPHIYNNIFLIFLISYMYWFCIKILFNGYIKGKYVAKEYILKISTLFIFFVILKISLIFLPAILSCIVCLILTFYFYSISMSPCKDIFYLFESTRIKKEPIGWIIIVYAESILIGNVIYNFLCPPKIIIIFIRYIQNDFLVKIICLTIILFISFLIFFLMISNIFPAKKAQNFVFSFTSSYLIVSCFAYFWNIFLLRFLNNTNIFQIEPIMFFSYTPKFVFNRQNMFALFMIFAMSILSIIFPRIKKLKQNIFDMKENIYDSDIDIGKASKNRYNIILNYFT
On to B2, for which, in test [1], the binding result was “binds”.

B3: 6-cysteine protein (P47) (protein, UniProt Q9BMP8 21-409)
chain: YIIFPNGYVCDFKFNPLVNVLPSINTTGDIEEVGCTINNPSLSDYIALVCPKKNYNDYEHMEKVPSKCFSSNLYSPYKSEDSAHKLEELKIPEKYSISKDFSDFDLNIILIPSLYNIDKTIYCRCDNSKTKRELIKNDGENIKLQGKLGLVKIILNNQQNSPQNIYHITRSTQVGSLDNKVIELKEGEIVHLKYDGKTRTNFNCKEIINMKISIPLDYNLSMRMPTVFLKDINCKFHLIFSNVGGIANIVFKAKKTENIDGCDFTVPKGKGLYKNGFALSEINNDEEICTVHIGRGQNSNAAGLKCPYNLTPAHCFKHVLYEKKYKNGNNVFQTFLLDDVLRTVDIEYYYNAKLSAHIVGIPTIPEKSETVRCVCEHDGKKGIMELKIS
Turning to B3, the binding result in test [2] and in test [1] was “binds” in each case.
